PubChem BioAssay AID743121 | NCATS, 2013
The whole screen tested about 26,000 reagents; below is an unselected part. 167 of all reagents (0.63%) count as active. 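Calls are per gene from RSA p-values that are not deposited; an individual active-marked siRNA can sensitise only weakly.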 The numbers tell different reagents against one gene apart. Further read-outs or replicates are left out here. No sequences are given here.

Test: 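Partners whose loss is lethal together with topoisomerase I blockade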 (primary screen)
Cells: MDA-MB-231 cells, a human breast cancer line
Knock-down reagent: single siRNA against human genes, 20 nM siRNA (0.8 pmol per well)
Timing: 120 h (drug added 48 h after transfection, read 72 h later)
Challenge: camptothecin 20 nM (about EC30) for 72 h; vehicle 0.1% DMSO in parallel plates
Read-out: 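Cell viability by ATP luminescence (CellTiter-Glo) as % of non-targeting siRNA wells, and the log2 ratio of viability without drug over viability with camptothecin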
Scale: log2 vehicle/camptothecin viability: higher = stronger sensitisation to camptothecin; viability with camptothecin: higher = more viable cells
Units: viability with camptothecin in % of control
Rule for the call: 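Each gene scored by redundant siRNA activity (RSA) over its individual siRNA ratios; a gene is called active at p < 0.001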

For USP9Y (GeneID 8287) #1, how do the results read?
log2 vehicle/camptothecin viability: -0.146; viability with camptothecin: 120; Call: inactive

With USP9Y (GeneID 8287) #2, what does the deposit list?
log2 vehicle/camptothecin viability: -0.386; viability with camptothecin: 37.5; Call: inactive

For USP9Y (GeneID 8287) #3, what was measured?
log2 vehicle/camptothecin viability: -0.033; viability with camptothecin: 75.2; Call: inactive

With USP9Y (GeneID 8287) #4, what does the deposit list?
log2 vehicle/camptothecin viability: -0.394; viability with camptothecin: 94.4; Call: inactive

What did the screen give for GPR137B (GeneID 7107) #1?
log2 vehicle/camptothecin viability: -0.0536; viability with camptothecin: 115; Call: inactive

For GPR137B (GeneID 7107) #2, how do the results read?
log2 vehicle/camptothecin viability: -0.26; viability with camptothecin: 74.8; Call: inactive

How did the screen score GPR137B (GeneID 7107) #3?
log2 vehicle/camptothecin viability: 0.106; viability with camptothecin: 61.2; Call: inactive

Which result is listed for GPR137B (GeneID 7107) #4?
log2 vehicle/camptothecin viability: 1.39; viability with camptothecin: 22; Call: inactive

What is on record for VLDLR (GeneID 7436) #1?
log2 vehicle/camptothecin viability: -0.188; viability with camptothecin: 56.8; Call: inactive

What did the screen give for VLDLR (GeneID 7436) #2?
log2 vehicle/camptothecin viability: 1.27; viability with camptothecin: 19; Call: inactive

How did the screen score VLDLR (GeneID 7436) #3?
log2 vehicle/camptothecin viability: 0.00251; viability with camptothecin: 89.7; Call: inactive

What is on record for VLDLR (GeneID 7436) #4?
log2 vehicle/camptothecin viability: -0.313; viability with camptothecin: 76.5; Call: inactive

4 of these entries in another layout.
VLDLR (GeneID 7436) #1
- log2 vehicle/camptothecin viability: -0.188
- viability with camptothecin: 56.8
- Call: inactive

VLDLR (GeneID 7436) #2
- log2 vehicle/camptothecin viability: 1.27
- viability with camptothecin: 19
- Call: inactive

VLDLR (GeneID 7436) #3
- log2 vehicle/camptothecin viability: 0.00251
- viability with camptothecin: 89.7
- Call: inactive

VLDLR (GeneID 7436) #4
- log2 vehicle/camptothecin viability: -0.313
- viability with camptothecin: 76.5
- Call: inactive

Further reagents:
Which result is listed for RGS6 (GeneID 9628) #1?
log2 vehicle/camptothecin viability: -0.135; viability with camptothecin: 79.8; Call: inactive

With RGS6 (GeneID 9628) #2, what was measured?
log2 vehicle/camptothecin viability: 0.0176; viability with camptothecin: 90.1; Call: inactive

Which result is listed for RGS6 (GeneID 9628) #3?
log2 vehicle/camptothecin viability: 0.00625; viability with camptothecin: 88.2; Call: inactive

Which result is listed for RGS6 (GeneID 9628) #4?
log2 vehicle/camptothecin viability: -0.266; viability with camptothecin: 74.9; Call: inactive

For DPEP3 (GeneID 64180) #1, what does the deposit list?
log2 vehicle/camptothecin viability: -0.121; viability with camptothecin: 114; Call: inactive

What is on record for DPEP3 (GeneID 64180) #2?
log2 vehicle/camptothecin viability: -0.16; viability with camptothecin: 98.8; Call: inactive

What is on record for DPEP3 (GeneID 64180) #3?
log2 vehicle/camptothecin viability: -0.255; viability with camptothecin: 66.8; Call: inactive

What did the screen give for DPEP3 (GeneID 64180) #4?
log2 vehicle/camptothecin viability: -0.573; viability with camptothecin: 120; Call: inactive

Which result is listed for CACNB3 (GeneID 784) #1?
log2 vehicle/camptothecin viability: -0.707; viability with camptothecin: 92.4; Call: inactive

With CACNB3 (GeneID 784) #2, what does the deposit list?
log2 vehicle/camptothecin viability: 0.408; viability with camptothecin: 37.1; Call: inactive

What is on record for CACNB3 (GeneID 784) #3?
log2 vehicle/camptothecin viability: -0.526; viability with camptothecin: 68.4; Call: inactive

With PRX (GeneID 57716) #1, how do the results read?
log2 vehicle/camptothecin viability: 0.0227; viability with camptothecin: 55.7; Call: inactive

With PRX (GeneID 57716) #2, what does the deposit list?
log2 vehicle/camptothecin viability: -0.297; viability with camptothecin: 81.4; Call: inactive

How did the screen score PRX (GeneID 57716) #3?
log2 vehicle/camptothecin viability: 0.0624; viability with camptothecin: 36.2; Call: inactive

What is on record for PRX (GeneID 57716) #4?
log2 vehicle/camptothecin viability: -0.301; viability with camptothecin: 87.4; Call: inactive
